This is one part of the list. Most entries show no effect beyond the scatter of the controls.

Protein sequences, listed by entry. Tags and fused reporters are not part of them. Lines headed by an entry give the natural chain unless they say otherwise; changes in a name come on top.
UniProt Q61526, whole entry: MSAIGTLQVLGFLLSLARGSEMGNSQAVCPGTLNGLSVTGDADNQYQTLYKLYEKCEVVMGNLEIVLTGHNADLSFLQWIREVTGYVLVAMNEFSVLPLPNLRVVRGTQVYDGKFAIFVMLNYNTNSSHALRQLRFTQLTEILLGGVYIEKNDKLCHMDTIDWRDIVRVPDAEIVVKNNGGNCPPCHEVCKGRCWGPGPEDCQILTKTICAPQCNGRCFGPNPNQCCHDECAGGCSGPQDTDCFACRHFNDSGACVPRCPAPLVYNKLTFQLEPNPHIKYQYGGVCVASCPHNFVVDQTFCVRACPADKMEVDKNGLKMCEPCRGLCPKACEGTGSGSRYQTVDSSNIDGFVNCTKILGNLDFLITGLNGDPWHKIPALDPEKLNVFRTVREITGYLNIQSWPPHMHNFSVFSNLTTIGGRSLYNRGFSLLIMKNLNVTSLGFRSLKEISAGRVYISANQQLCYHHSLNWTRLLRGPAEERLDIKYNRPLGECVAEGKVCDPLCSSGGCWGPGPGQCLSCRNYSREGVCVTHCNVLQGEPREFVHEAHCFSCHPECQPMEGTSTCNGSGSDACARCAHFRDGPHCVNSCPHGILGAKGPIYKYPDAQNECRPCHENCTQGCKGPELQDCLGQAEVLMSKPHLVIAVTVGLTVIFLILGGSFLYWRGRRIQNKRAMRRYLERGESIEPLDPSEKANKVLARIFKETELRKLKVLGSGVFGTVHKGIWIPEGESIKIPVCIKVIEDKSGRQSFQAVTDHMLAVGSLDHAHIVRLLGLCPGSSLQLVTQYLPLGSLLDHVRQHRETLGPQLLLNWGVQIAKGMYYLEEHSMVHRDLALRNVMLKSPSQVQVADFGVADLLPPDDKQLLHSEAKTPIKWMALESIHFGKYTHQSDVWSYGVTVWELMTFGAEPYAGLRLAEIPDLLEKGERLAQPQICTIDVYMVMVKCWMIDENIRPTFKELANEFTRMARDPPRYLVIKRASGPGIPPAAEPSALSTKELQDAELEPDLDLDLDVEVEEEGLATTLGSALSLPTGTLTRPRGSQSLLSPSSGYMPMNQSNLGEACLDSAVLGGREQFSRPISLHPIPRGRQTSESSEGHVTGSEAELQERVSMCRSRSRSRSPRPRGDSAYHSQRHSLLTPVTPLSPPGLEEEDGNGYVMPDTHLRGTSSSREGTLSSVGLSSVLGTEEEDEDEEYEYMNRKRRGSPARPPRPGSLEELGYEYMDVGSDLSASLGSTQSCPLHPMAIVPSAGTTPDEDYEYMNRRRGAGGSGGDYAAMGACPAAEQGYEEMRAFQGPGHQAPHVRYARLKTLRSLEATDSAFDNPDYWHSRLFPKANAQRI
UniProt Q61316: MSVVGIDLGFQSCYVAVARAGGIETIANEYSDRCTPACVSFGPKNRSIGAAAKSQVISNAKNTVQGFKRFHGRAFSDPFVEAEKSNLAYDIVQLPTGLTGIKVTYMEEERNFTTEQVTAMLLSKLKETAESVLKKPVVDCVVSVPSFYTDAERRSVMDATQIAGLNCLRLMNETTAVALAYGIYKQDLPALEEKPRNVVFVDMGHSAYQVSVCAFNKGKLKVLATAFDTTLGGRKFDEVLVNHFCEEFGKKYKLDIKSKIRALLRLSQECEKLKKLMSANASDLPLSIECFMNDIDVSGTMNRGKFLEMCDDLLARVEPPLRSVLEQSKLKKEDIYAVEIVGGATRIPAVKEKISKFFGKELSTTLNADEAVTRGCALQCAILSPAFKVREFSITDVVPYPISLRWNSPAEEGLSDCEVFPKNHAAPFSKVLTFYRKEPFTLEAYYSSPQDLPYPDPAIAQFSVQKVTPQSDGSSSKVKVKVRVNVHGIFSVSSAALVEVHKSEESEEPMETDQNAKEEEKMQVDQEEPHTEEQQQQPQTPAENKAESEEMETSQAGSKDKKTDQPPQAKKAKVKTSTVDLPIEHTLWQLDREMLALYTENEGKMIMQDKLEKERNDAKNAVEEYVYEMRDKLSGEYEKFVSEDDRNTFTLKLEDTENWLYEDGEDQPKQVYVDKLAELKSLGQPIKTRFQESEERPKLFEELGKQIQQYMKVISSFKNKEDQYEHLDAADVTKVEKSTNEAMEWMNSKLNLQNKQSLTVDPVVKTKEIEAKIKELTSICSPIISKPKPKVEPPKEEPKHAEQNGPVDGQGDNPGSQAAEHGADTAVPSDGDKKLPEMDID
UniProt Q62188, whole entry: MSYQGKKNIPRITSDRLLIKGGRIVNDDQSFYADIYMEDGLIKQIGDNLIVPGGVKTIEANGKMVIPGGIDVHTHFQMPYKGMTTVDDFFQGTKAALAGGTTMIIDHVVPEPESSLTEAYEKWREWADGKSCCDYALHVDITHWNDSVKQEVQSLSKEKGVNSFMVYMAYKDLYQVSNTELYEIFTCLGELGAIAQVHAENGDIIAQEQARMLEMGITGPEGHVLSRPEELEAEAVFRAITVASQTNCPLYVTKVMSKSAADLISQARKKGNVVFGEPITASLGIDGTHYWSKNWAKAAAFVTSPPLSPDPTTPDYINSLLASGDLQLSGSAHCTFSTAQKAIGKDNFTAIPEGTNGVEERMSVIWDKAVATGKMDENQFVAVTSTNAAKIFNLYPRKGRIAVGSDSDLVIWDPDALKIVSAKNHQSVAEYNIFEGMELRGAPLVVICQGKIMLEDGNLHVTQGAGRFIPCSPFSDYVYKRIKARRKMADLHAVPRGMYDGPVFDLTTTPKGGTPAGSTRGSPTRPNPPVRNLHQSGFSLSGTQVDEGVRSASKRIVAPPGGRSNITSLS
UniProt Q62087: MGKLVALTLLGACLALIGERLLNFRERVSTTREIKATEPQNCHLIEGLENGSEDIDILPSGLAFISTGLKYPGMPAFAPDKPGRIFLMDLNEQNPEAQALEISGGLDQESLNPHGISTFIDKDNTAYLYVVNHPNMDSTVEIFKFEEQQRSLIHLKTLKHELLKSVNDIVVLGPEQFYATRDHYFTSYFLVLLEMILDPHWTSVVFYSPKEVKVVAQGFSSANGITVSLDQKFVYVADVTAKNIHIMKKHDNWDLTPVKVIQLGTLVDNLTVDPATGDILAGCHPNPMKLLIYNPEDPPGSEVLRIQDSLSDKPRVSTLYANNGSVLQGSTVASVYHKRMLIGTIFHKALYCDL
UniProt Q61559: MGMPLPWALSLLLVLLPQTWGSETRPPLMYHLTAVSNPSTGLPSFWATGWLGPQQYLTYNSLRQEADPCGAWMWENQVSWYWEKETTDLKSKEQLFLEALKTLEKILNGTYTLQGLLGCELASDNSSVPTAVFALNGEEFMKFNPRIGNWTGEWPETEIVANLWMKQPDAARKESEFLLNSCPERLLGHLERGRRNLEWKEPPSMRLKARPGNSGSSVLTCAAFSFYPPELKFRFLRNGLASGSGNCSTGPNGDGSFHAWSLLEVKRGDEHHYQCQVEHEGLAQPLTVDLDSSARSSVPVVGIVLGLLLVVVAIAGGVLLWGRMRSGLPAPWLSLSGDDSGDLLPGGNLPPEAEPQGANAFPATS
UniProt Q62136: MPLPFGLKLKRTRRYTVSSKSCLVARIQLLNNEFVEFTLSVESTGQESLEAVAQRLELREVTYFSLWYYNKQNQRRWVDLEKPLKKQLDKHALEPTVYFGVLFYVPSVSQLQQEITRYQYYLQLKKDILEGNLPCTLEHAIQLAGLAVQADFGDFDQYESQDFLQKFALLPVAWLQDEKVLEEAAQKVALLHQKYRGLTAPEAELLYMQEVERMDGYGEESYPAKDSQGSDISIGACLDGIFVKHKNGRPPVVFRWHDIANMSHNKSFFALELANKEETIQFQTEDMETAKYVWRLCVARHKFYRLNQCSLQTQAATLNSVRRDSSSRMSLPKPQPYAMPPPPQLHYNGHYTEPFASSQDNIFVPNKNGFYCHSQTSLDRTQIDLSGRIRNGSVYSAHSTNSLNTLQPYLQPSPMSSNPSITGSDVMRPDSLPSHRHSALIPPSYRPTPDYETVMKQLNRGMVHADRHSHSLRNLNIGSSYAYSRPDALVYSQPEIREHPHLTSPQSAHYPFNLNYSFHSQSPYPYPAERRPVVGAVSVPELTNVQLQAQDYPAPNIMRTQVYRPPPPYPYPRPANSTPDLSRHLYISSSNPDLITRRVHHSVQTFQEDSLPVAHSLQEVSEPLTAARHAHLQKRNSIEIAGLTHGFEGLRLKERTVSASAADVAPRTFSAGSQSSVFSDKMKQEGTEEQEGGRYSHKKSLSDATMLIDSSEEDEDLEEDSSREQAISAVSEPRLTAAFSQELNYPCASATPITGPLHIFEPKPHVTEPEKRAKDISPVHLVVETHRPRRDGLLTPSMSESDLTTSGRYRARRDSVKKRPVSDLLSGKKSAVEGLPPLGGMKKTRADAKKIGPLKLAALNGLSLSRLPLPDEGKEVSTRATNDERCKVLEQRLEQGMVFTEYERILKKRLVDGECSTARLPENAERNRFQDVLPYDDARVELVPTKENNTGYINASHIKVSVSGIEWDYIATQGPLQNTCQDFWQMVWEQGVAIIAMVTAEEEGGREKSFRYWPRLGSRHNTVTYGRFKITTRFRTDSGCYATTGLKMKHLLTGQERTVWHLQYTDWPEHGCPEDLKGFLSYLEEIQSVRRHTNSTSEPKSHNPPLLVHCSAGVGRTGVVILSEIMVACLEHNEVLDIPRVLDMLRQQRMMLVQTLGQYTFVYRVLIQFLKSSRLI
UniProt Q61647: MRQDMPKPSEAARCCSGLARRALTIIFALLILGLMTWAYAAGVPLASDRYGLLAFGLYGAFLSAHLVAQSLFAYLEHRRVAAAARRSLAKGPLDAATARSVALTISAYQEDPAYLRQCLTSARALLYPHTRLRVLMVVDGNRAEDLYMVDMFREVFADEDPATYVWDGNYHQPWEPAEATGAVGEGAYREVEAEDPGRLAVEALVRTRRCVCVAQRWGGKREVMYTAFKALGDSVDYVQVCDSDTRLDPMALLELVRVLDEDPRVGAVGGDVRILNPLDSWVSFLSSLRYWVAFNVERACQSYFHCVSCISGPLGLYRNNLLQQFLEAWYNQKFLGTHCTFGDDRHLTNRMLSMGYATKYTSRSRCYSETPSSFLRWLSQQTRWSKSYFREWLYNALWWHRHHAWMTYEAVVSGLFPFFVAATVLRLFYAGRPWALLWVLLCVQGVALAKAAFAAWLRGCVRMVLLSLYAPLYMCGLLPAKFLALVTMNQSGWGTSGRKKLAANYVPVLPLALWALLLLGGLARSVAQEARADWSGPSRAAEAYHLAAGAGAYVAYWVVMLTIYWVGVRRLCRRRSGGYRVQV
UniProt Q64727: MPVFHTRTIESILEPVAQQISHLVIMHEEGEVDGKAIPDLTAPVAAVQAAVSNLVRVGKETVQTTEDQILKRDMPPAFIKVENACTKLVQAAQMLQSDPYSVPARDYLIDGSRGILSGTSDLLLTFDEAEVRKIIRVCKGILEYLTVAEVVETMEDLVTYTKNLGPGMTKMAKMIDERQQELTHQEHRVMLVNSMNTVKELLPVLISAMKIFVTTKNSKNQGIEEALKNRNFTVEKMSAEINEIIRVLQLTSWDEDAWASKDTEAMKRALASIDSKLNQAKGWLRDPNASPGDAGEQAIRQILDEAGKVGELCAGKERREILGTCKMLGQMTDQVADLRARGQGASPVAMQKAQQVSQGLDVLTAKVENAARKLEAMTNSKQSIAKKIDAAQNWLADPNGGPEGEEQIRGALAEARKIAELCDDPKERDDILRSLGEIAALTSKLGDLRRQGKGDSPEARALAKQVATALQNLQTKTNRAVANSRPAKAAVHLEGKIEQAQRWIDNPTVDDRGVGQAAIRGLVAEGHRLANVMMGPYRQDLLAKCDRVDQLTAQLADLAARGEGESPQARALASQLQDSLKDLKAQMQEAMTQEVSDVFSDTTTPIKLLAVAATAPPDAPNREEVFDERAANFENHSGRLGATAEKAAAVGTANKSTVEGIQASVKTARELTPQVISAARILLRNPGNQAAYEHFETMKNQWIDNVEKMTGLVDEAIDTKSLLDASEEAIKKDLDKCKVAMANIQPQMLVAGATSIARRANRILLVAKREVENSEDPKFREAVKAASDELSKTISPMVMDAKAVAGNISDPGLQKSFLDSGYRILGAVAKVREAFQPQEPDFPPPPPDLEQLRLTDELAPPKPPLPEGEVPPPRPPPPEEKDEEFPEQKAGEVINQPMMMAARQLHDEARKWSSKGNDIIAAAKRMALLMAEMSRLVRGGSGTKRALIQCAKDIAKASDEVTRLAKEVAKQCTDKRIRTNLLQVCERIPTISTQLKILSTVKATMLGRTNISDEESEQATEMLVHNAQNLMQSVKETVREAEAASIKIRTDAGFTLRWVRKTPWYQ
UniProt Q64669, whole entry: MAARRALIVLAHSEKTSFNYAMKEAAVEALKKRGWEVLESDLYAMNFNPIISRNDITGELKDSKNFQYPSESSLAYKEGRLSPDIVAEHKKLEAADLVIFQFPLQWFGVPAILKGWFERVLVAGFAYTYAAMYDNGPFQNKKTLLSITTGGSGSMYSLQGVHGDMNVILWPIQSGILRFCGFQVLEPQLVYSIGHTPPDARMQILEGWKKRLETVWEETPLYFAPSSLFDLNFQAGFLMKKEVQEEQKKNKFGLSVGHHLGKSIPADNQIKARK

Among the data in the supplement of paper PMC12819154, “High-throughput peptide-centric local stability assay extends protein–ligand identification to membrane proteins, tissues and bacteria” (Nature Structural & Molecular Biology, 2025) are log2 fold change values, retold here.

Compound in this assay: CN[C@@H]1C[C@H]2O[C@@](C)([C@@H]1OC)n1c3ccccc3c3c4c(c5c6ccccc6n2c5c31)C(=O)NC4 [staurosporine]
In words: log2 fold change of tryptic peptide abundance, ligand vs vehicle (limited proteolysis) (log2 ratio); higher = more trypsin-susceptible (destabilized). The following applies: ligand concentration: 20 uM; sample: mouse liver crude lysate; replicate design: treated separately.
Consider “UniProt Q61827 (peptide sequence: GLTKEEVTR, peptide start residue: 43)”, for which the log2 fold change is -0.21.

With “UniProt Q62313 (peptide sequence: VDLDKPTSK, peptide start residue: 172)”, the log2 fold change was -0.134.

Consider “UniProt Q61526 (peptide sequence: CWMIDENIRPTFK, peptide start residue: 945)”, for which the log2 fold change is -0.477.

Consider “UniProt Q61316 (peptide sequence: KFDEVLVNHFCEEFGK, peptide start residue: 235)”, for which the log2 fold change was 0.425.

With “UniProt Q62188 (peptide sequence: QIGDNLIVPGGVK, peptide start residue: 44)”, the log2 fold change turned out to be 0.395.

Turning to “UniProt Q63844 (peptide sequence: NYLQSLPSK, peptide start residue: 280)”, the log2 fold change was determined as 0.179.

For “UniProt Q63836 (peptide sequence: CGPGYPTPLEAMKGPR, peptide start residue: 8)”, the log2 fold change was determined as 0.257.

“UniProt Q64FW2 (peptide sequence: GVSHAVLLK, peptide start residue: 203)”: the log2 fold change stood at 0.523.

For the target “UniProt Q62087 (peptide sequence: IQDSLSDKPR, peptide start residue: 306)”, the log2 fold change was -0.147.

On to “UniProt Q61838 (peptide sequence: YGAATFTR, peptide start residue: 1282)”, for which the log2 fold change is 0.273.

Turning to “UniProt Q62077 (peptide sequence: SLMYSAQK, peptide start residue: 219)”, the log2 fold change was 0.488.

On to “UniProt Q69ZP3 (peptide sequence: VNLVAILCTHK, peptide start residue: 163)”, for which the log2 fold change was found to be 0.541.

On to “UniProt Q62009 (peptide sequence: LILQNHILK, peptide start residue: 429)”, for which the log2 fold change was -0.168.

For “UniProt Q62101 (peptide sequence: RSVVGTPAYLAPEVLR, peptide start residue: 733)”, the log2 fold change was -0.0964.

“UniProt Q61548 (peptide sequence: FIQYLASR, peptide start residue: 93)”: the log2 fold change is -0.244.

Regarding “UniProt Q61990 (peptide sequence: IANPVEGSTDR, peptide start residue: 320)”, the log2 fold change is 0.056.

“UniProt Q64674 (peptide sequence: SRYQDILVFR, peptide start residue: 46)”: the log2 fold change was -0.232.

As for “UniProt Q61559 (peptide sequence: NLEWKEPPSMR, peptide start residue: 196)”, the log2 fold change was -0.16.

With “UniProt Q61792 (peptide sequence: GKGFSVVADTPELQR, peptide start residue: 95)”, the log2 fold change was -0.0833.

With “UniProt Q62136 (peptide sequence: RDGLLTPSMSESDLTTSGR, peptide start residue: 790)”, the log2 fold change is 0.481.

With “UniProt Q62418 (peptide sequence: ASGANYSFHK, peptide start residue: 135)”, the log2 fold change was -0.155.

For the target “UniProt Q64324 (peptide sequence: SQLLIMDR, peptide start residue: 228)”, the log2 fold change is -0.236.

As to “UniProt Q61647 (peptide sequence: LAVEALVR, peptide start residue: 199)”, the log2 fold change came out at 0.0213.

“UniProt Q64735 (peptide sequence: EVGIHLNYKEDSCVR, peptide start residue: 443)”: the log2 fold change was -0.263.

Regarding “UniProt Q64318 (peptide sequence: VIQPNGNQDER, peptide start residue: 838)”, the log2 fold change worked out at 0.338.

Take “UniProt Q64727 (peptide sequence: IRTNLLQVCERIPTISTQLK, peptide start residue: 977)”: the log2 fold change turned out to be 0.604.

On to “UniProt Q63918 (peptide sequence: YQASTSNTVSK, peptide start residue: 103)”, for which the log2 fold change came to 0.143.

On to “UniProt Q64669 (peptide sequence: NFQYPSESSLAYKEGR, peptide start residue: 65)”, for which the log2 fold change amounted to 0.511.

As to “UniProt Q61543 (peptide sequence: QMSCLMEALEDKR, peptide start residue: 1085)”, the log2 fold change amounted to 0.519.

In the case of “UniProt Q62511 (peptide sequence: YLQHHIK, peptide start residue: 329)”, the log2 fold change turned out to be 0.189.

On to “UniProt Q62376 (peptide sequence: EFEVYGPIKR, peptide start residue: 122)”, for which the log2 fold change stood at 0.409.

On to “UniProt Q61382 (peptide sequence: HVEESVKPHLAMMCALVSR, peptide start residue: 269)”, for which the log2 fold change was found to be 0.0179.

As to “UniProt Q62193 (peptide sequence: SQLQHMPVPSIK, peptide start residue: 232)”, the log2 fold change was 0.0845.

In the case of “UniProt Q62419 (peptide sequence: LDDDFKDMEK, peptide start residue: 29)”, the log2 fold change was determined as 0.348.

Take “UniProt Q61768 (peptide sequence: VHEMEKEHLNK, peptide start residue: 680)”: the log2 fold change was 0.235.

Turning to “UniProt Q69ZL1 (peptide sequence: GLESDWQGLATGEEKR, peptide start residue: 647)”, the log2 fold change was -0.554.

Take “UniProt Q64705 (peptide sequence: QQIEELKNENALLR, peptide start residue: 316)”: the log2 fold change amounted to 0.24.

In the case of “UniProt Q64362 (peptide sequence: KQLPSIPK, peptide start residue: 38)”, the log2 fold change worked out at 0.131.

For “UniProt Q64152 (peptide sequence: KLQFSLKK, peptide start residue: 85)”, the log2 fold change is 0.156.
